Measurements reported in the supplement of paper PMC4604168 (melanoma cell lines).
The list shows a part of the results. Single values are uncertain, as repeats are few or missing.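 The apoptosis fraction was the count of cleaved-PARP antibody-stained nuclei relative to all DNA-stained nuclei, imaged in 1,536-well plates. Screening doses were set so most cells survived, and baseline and induced cleaved-PARP levels vary greatly across cell lines.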

Tests used:
Assay in all cases: cleaved PARP positive nuclei fraction relative to DMSO control; melanoma cells; higher = more apoptosis
Settings in all cases: library dose: low library concentration; 72 h
501Mel = test system: 501Mel
A101D = test system: A101D
A2058 = test system: A2058
A375 = test system: A375
C32 = test system: C32
CBRC013 = test system: CBRC013 (line from a melanoma biopsy)
CBRC014 = test system: CBRC014 (line from a melanoma biopsy)
CBRC016 = test system: CBRC016 (line from a melanoma biopsy)
CBRC017 = test system: CBRC017 (line from a melanoma biopsy)

SMILES | cleaved PARP positive nuclei fraction (501Mel) [%] | cleaved PARP positive nuclei fraction (A101D) [%] | cleaved PARP positive nuclei fraction (A2058) [%] | cleaved PARP positive nuclei fraction (A375) [%] | cleaved PARP positive nuclei fraction (C32) [%] | cleaved PARP positive nuclei fraction (CBRC013) [%] | cleaved PARP positive nuclei fraction (CBRC014) [%] | cleaved PARP positive nuclei fraction (CBRC016) [%] | cleaved PARP positive nuclei fraction (CBRC017) [%]
COc1cc(Nc2ncc(F)c(Nc3ccc4c(n3)NC(=O)C(C)(C)O4)n2)cc(OC)c1OC [Tamatinib] + c1cc(-c2cnn3cc(-c4ccc(OCCN5CCCCC5)cc4)cnc23)ccn1 [Dorsomorphin] (first compound 0.4 µM, partner dose 0.4 µM) | 162 | 127 | 78.9 | 180 | 63 | 187 | 92.2 | 85.5 | 110
Cc1ccc(NC(=O)c2cccc(N(C)C)c2)cc1NC(=O)c1ccc(O)cc1 + COc1cc(N2CCC(N3CCN(C)CC3)CC2)ccc1Nc1ncc(Cl)c(Nc2ccccc2S(=O)(=O)C(C)C)n1 [NVP-TAE684] (first compound 2 µM, partner dose 0.08 µM) | 88 | 72.3 | 117 | 687 | 32.5 | 72.7 | 99.2 | 58.6 | 114
COCC[n+]1c2c(n(Cc3cnccn3)c1C)C(=O)c1ccccc1C2=O + O=C(O)C(=O)Nc1sc2c(c1C(=O)O)CCNC2 [TCS401] (first compound 0.0004 µM, partner dose 1.66667 µM) | 87.1 | 116 | 278 | 235 | 142 | 94.5 | 72.7 | 182 | 47.3
Cc1cc(N2CCOCC2)cc2[nH]c(-c3c(NC[C@@H](O)c4cccc(Cl)c4)cc[nH]c3=O)nc12 + COc1ccc(COc2ccc(Cc3cnc(N)nc3N)cc2OC)cc1 [GW2580] (first compound 0.2 µM, partner dose 1 µM) | 70.2 | 48.5 | 116 | 108 | 195 | 210 | 110 | 66.5 | 99.9
Cc1nc(Nc2ncc(C(=O)Nc3c(C)cccc3Cl)s2)cc(N2CCN(CCO)CC2)n1 [dasatanib] + Oc1cc(-c2nc(-c3ccccc3)[nH]c2-c2ccncc2)ccc1Cl [L779450] (first compound 0.004 µM, partner dose 0.2 µM) | 106 | 75 | 161 | 382 | 105 | 491 | 118 | 106 | 186
C[C@@H]1CCN(C(=O)CC#N)C[C@@H]1N(C)c1ncnc2[nH]ccc12 + O=C(Nc1ccccc1)c1cc([N+](=O)[O-])ccc1Cl [GW9662] (first compound 1 µM, partner dose 2 µM) | 122 | 47.9 | 27 | 109 | 78.4 | 46 | 88.6 | 30 | 71
Cn1nnc2c(C(N)=O)ncn2c1=O [temozolomide] + O=C(Nc1ccccc1)c1cc([N+](=O)[O-])ccc1Cl [GW9662] (first compound 2 µM, partner dose 2 µM) | 94.7 | 115 | 50.8 | 157 | 400 | 123 | 113 | 74.1 | 88
Cn1c(Nc2ccc(C(F)(F)F)cc2)nc2cc(Oc3ccnc(-c4ncc(C(F)(F)F)[nH]4)c3)ccc21 + COc1ccc(COc2ccc(Cc3cnc(N)nc3N)cc2OC)cc1 [GW2580] (first compound 0.08 µM, partner dose 1 µM) | 107 | 395 | 76.4 | 420 | 60.7 | 130 | 121 | 138 | 103
C[C@]1(c2nc3c(C(N)=O)cccc3[nH]2)CCCN1 [Veliparib] + O=C(Nc1ccccc1)c1cc([N+](=O)[O-])ccc1Cl [GW9662] (first compound 1.4 µM, partner dose 2 µM) | 117 | 166 | 99 | 159 | 60.5 | 126 | 216 | 56 | 88.5
CO[C@@H]1[C@H](N(C)C(=O)c2ccccc2)C[C@H]2O[C@]1(C)n1c3ccccc3c3c4c(c5c6ccccc6n2c5c31)C(=O)NC4 [Midostaurin] + CCCCCCCCCCCC1=C(O)C(=O)C=C(O)C1=O [Embelin] (first compound 0.08 µM, partner dose 1.2 µM) | 64.7 | 194 | 17.9 | 58 | 158 | 191 | 106 | 93.6 | 46.2
Cn1c(Nc2ccc(C(F)(F)F)cc2)nc2cc(Oc3ccnc(-c4ncc(C(F)(F)F)[nH]4)c3)ccc21 + O=S(=O)(c1ccccc1)N(CC(F)(F)F)c1ccc(C(O)(C(F)(F)F)C(F)(F)F)cc1 [T0901317] (first compound 0.08 µM, partner dose 1.4 µM) | 169 | 110 | 825 | 384 | 46.7 | 413 | 104 | 131 | 122
C#Cc1cccc(Nc2ncnc3cc(OCCOC)c(OCCOC)cc23)c1 [erlotinib] + Oc1nc(-c2ccc(C(F)(F)F)cc2)nc2c1CSCC2 [XAV939] (first compound 0.8 µM, partner dose 2 µM) | 95.4 | 89.7 | 71.2 | 111 | 149 | 158 | 91.5 | 82.4 | 106
Cn1c(Nc2ccc(C(F)(F)F)cc2)nc2cc(Oc3ccnc(-c4ncc(C(F)(F)F)[nH]4)c3)ccc21 + CCc1ccc(CCOc2ccc(CC3SC(=O)NC3=O)cc2)nc1 [pioglitazone] (first compound 0.08 µM, partner dose 2 µM) | 91.3 | 190 | 93.8 | 511 | 146 | 142 | 115 | 103 | 80.4
Cn1cncc1[C@@](N)(c1ccc(Cl)cc1)c1ccc2c(c1)c(-c1cccc(Cl)c1)cc(=O)n2C [tipifarnib] + CCN(CC)CCCCNc1ncc2cc(-c3cc(OC)cc(OC)c3)c(NC(=O)NC(C)(C)C)nc2n1 [PD173074] (first compound 0.01 µM, partner dose 0.1 µM) | 140 | 236 | 105 | 44.9 | 62.4 | 506 | 103 | 92 | 77.7
COCC[n+]1c2c(n(Cc3cnccn3)c1C)C(=O)c1ccccc1C2=O + Oc1cc(-c2nc(-c3ccccc3)[nH]c2-c2ccncc2)ccc1Cl [L779450] (first compound 0.0004 µM, partner dose 0.2 µM) | 85.4 | 116 | 400 | 426 | 75.4 | 151 | 149 | 80.5 | 88.9
Cc1nc(Nc2ncc(C(=O)Nc3c(C)cccc3Cl)s2)cc(N2CCN(CCO)CC2)n1 [dasatanib] + COc1ccc(COc2ccc(Cc3cnc(N)nc3N)cc2OC)cc1 [GW2580] (first compound 0.004 µM, partner dose 1 µM) | 83.2 | 66.6 | 200 | 246 | 62.1 | 105 | 116 | 34.6 | 78.7
C[C@@H]1CCN(C(=O)CC#N)C[C@@H]1N(C)c1ncnc2[nH]ccc12 + COc1cc(N2CCC(N3CCN(C)CC3)CC2)ccc1Nc1ncc(Cl)c(Nc2ccccc2S(=O)(=O)C(C)C)n1 [NVP-TAE684] (first compound 1 µM, partner dose 0.08 µM) | 89.4 | 150 | 263 | 228 | 118 | 193 | 95.3 | 69.2 | 78.3
COc1cc(Nc2ncc(F)c(Nc3ccc4c(n3)NC(=O)C(C)(C)O4)n2)cc(OC)c1OC [Tamatinib] + COc1ccc(-c2ccc3c(N4CCOCC4)nc(N4C[C@@H](C)O[C@@H](C)C4)nc3n2)cc1CO [KU0063794] (first compound 0.4 µM, partner dose 0.02 µM) | 87.6 | 95.6 | 119 | 309 | 96.6 | 382 | 104 | 62.1 | 76.1
COCC[n+]1c2c(n(Cc3cnccn3)c1C)C(=O)c1ccccc1C2=O + Oc1nc(-c2ccc(C(F)(F)F)cc2)nc2c1CSCC2 [XAV939] (first compound 0.0004 µM, partner dose 2 µM) | 70.6 | 57.4 | 388 | 184 | 81.4 | 441 | 97.7 | 96.7 | 76.2
Cc1nc(Nc2ncc(C(=O)Nc3c(C)cccc3Cl)s2)cc(N2CCN(CCO)CC2)n1 [dasatanib] + O=C(O)C(=O)Nc1sc2c(c1C(=O)O)CCNC2 [TCS401] (first compound 0.004 µM, partner dose 1.66667 µM) | 74.4 | 136 | 36.3 | 81.9 | 105 | 138 | 103 | 169 | 64.4
CC1(C)NC(=O)N(c2ccc([N+](=O)[O-])c(C(F)(F)F)c2)C1=O [nilutamide] + COc1ccc2c(c1)CCC1C2CCC2(C)C(NCCCCCCN3C(=O)C=CC3=O)CCC12 [U73122] (first compound 1 µM, partner dose 0.4 µM) | 50.3 | 146 | 48.5 | 83.1 | 44 | 206 | 96.5 | 28.8 | 72.1
C#Cc1cccc(Nc2ncnc3cc(OCCOC)c(OCCOC)cc23)c1 [erlotinib] + COc1ccc(-c2ccc3c(N4CCOCC4)nc(N4C[C@@H](C)O[C@@H](C)C4)nc3n2)cc1CO [KU0063794] (first compound 0.8 µM, partner dose 0.02 µM) | 48.7 | 128 | 71.6 | 118 | 125 | 140 | 115 | 66.8 | 212
Nc1cccc2c1CN(C1CCC(=O)NC1=O)C2=O (stereo unspecified) [lenalidomide] + COc1ccc(COc2ccc(Cc3cnc(N)nc3N)cc2OC)cc1 [GW2580] (first compound 1 µM, partner dose 1 µM) | 222 | 74.2 | 102 | 332 | 87.9 | 152 | 80.1 | 125 | 71.6
C[C@@H]1CCN(C(=O)CC#N)C[C@@H]1N(C)c1ncnc2[nH]ccc12 + Oc1nc(-c2ccc(C(F)(F)F)cc2)nc2c1CSCC2 [XAV939] (first compound 1 µM, partner dose 2 µM) | 158 | 186 | 237 | 59.4 | 45.9 | 263 | 75.6 | 83 | 84.1

Not a retest: entries from further up.
SMILES | cleaved PARP positive nuclei fraction (501Mel) [%] | cleaved PARP positive nuclei fraction (A101D) [%] | cleaved PARP positive nuclei fraction (A2058) [%] | cleaved PARP positive nuclei fraction (A375) [%] | cleaved PARP positive nuclei fraction (C32) [%] | cleaved PARP positive nuclei fraction (CBRC013) [%] | cleaved PARP positive nuclei fraction (CBRC014) [%] | cleaved PARP positive nuclei fraction (CBRC016) [%] | cleaved PARP positive nuclei fraction (CBRC017) [%]
Cc1ccc(NC(=O)c2cccc(N(C)C)c2)cc1NC(=O)c1ccc(O)cc1 + COc1cc(N2CCC(N3CCN(C)CC3)CC2)ccc1Nc1ncc(Cl)c(Nc2ccccc2S(=O)(=O)C(C)C)n1 [NVP-TAE684] (first compound 2 µM, partner dose 0.08 µM) | 88 | 72.3 | 117 | 687 | 32.5 | 72.7 | 99.2 | 58.6 | 114
COCC[n+]1c2c(n(Cc3cnccn3)c1C)C(=O)c1ccccc1C2=O + O=C(O)C(=O)Nc1sc2c(c1C(=O)O)CCNC2 [TCS401] (first compound 0.0004 µM, partner dose 1.66667 µM) | 87.1 | 116 | 278 | 235 | 142 | 94.5 | 72.7 | 182 | 47.3
